In PubChem BioAssay AID1259415 (National Center for Advancing Translational Sciences (NCATS), 2018):
Where “and” joins values, the source holds several entries; their conditions need not be identical. Identical values can stand only once. Among all 410,000 compounds or so, about 18,000 (4.4%) were called active. The shares of active, inactive and inconclusive entries below differ from those in the screen. Cut-off read from the data, not from the text of the source: active = activity change below about -60%; inconclusive = no clear call, values can overlap the other calls; inactive = above about -39%.

experiment: qHTS Assay for inhibitors of the human cytomegalovirus (HCMV); details: HFF cells, HCMV-luciferase reporter, 72 h; at 57.5 µM; active compounds read low
How it was run: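 Two compound doses tested in HFFs infected with HCMV-luciferase, MOI 1 PFU/cell, 72 h at 37C. Lysate luminescence read with OneGlo; data normalized against buffer-only and 10uM Salinomycin inhibitor controls.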
% is set by controls: 0 for no effect and ±100 for the full control effect.

Compound | activity change, negative = inhibition
O=C(Nc1cc(C(F)(F)F)ccc1N1CCOCC1)c1c(F)c(F)c(F)c(F)c1F | inconclusive: -42.2%
CC(C)[C@H]1CC[C@@H](C)C(C(=O)c2ccccc2)C1=O (stereo not given in full) | inconclusive: -54.2%
CCCN(CCO)Cc1ccc(F)c(Br)c1 | inconclusive: -42.3%
Cc1cccc(N(C)S(=O)(=O)c2nnc(NC(=O)C3CCCCC3)s2)c1 | inactive: -0.729%
CN1CCN(S(=O)(=O)c2ccc(Cl)nc2)CC1 | inconclusive: -43.7%
CCOC(=O)c1cccc(NC(=O)c2sc3nc[nH]c(=O)c3c2C)c1 | inactive: 76.5%
Cc1ccc(NC(=O)CCn2nc([N+](=O)[O-])cc2C)nc1 | inconclusive: -52.2%
Cc1ccccc1N1CCN(C2CCCN(C(=O)c3ccc(Cl)s3)C2)CC1 (stereo not given) | inactive: -1.12%
Cc1c(C(=O)N2CCOCC2)sc(NC(=O)c2ccc([N+](=O)[O-])cc2)c1C#N | inactive: -28.9%
CC(NC(=O)C(C)N1c2cccc3cccc(c23)S1(=O)=O)c1ccccc1 (stereo not given) | inconclusive: -42%
CC(C)CCNC1=NCCCCC1 | inconclusive: -44.4%
CSc1ccccc1C(=O)C1CCCN(Cc2ccccn2)C1 (stereo not given) | inconclusive: -57.6%
O=C(N[C@@H](Cc1ccccc1)C(=O)O)c1cccnc1 | inactive: 13.7%
O=C(O)/C=C/C(=O)N(CC1CCCO1)C1CC(=O)N(c2c(Cl)cccc2Cl)C1=O (stereo not given) | inactive: -5.18%
COc1ccc(C(CNC(=O)c2cccc(S(=O)(=O)Nc3ccc(F)cc3)c2)N2CCCC2)cc1 (stereo not given) | inactive: -16.2%
CCOC(=O)/C=c1\s/c(=C\c2ccc(-c3ccccc3)cc2)c(=O)n1CC(=O)NCc1ccc2c(c1)OCO2 | inconclusive: -41.9%
O=C(CSc1nc2c(c(=O)n1-c1ccccc1)SCC2)N1CCN(c2ccccc2)CC1 | inconclusive: -50.2%
Cc1cc2oc(=O)cc(CN3CCN(Cc4ccccc4)CC3)c2cc1C | inconclusive: -53.7%
COc1ccc(C(=O)CC(=O)C(=O)Nc2cc(C)ccc2C)cc1 | inactive: 23.2%
COc1ccc(C(=O)/C=C/NCc2ccc(C)cc2)cc1 | active: -60.5%
Cc1cc(OCC(=O)N2CCN(c3ccccc3)CC2)c2c(C)cc(=O)oc2c1 | inconclusive: -54.5%
FC(F)Oc1ccc(NC(=S)NCc2ccccc2)cc1Cl | inconclusive: -45.7%
CN(C)c1ccc(N2C(=O)CC(c3ccccc3)CC2=O)cc1 | inconclusive: -57.2%
CN(C(=O)COC(=O)c1ccccc1C(=O)N1CCN(c2ccccc2)CC1)c1ccccc1 | inconclusive: -51.2%
CCOc1ccccc1NC(=O)C1CCCN(S(=O)(=O)c2cn(C)cn2)C1 (stereo not given) | inconclusive: -43.8%
CCOc1ccc(NC(=O)Cn2c(=O)cc(C)c3c(C)nn(-c4ccc(CC)cc4)c32)cc1 | inactive: 26.9%
Cc1ccccc1OCc1csc(N)n1 | inactive: -20.1%
O=C(Nc1ccccc1-c1ccccc1)NC1CC2CCCC(C1)N2Cc1ccc(F)cc1 (stereo not given) | inactive: -39.6%

Compound | activity change, negative = inhibition
O=C(N/N=C/c1c[nH]c2ccccc12)c1ccccc1Cl | inactive: 102%
CCN(CC(=O)Nc1ccc(NC(C)=O)cc1)C(=O)CSC(c1ccccc1)c1ccccc1 | inconclusive: -48.7%
Cc1ccc(NC(=O)C(C)Sc2nnc(C)n2CC2CCCO2)cc1 (stereo not given) | active: -71.1%
Cc1nn(Cc2ccc(F)cc2)c2sc(C(=O)Nc3ccccc3N3CCOCC3)cc12 | inconclusive: -43.8%
Cc1ccc(NS(=O)(=O)c2cccs2)cc1S(=O)(=O)N1CCCCCC1 | inconclusive: -45.9%
Cc1cc(C)c(NC(=O)NC(=O)C(Cl)(Cl)Cl)c(C)c1 | inactive: 22.9%
COc1ccc(-c2nc3ccccc3s2)cc1NC(C)=O | inactive: 47.8% and inactive: 136%
CCC(C)c1ccc(S(=O)(=O)N2CCN(C(=O)c3ccc(Cl)c(S(=O)(=O)N4CCOCC4)c3)CC2)cc1 (stereo not given) | inconclusive: -60%
COC(=O)c1ccc(/C=N/NC(=O)c2ccc3nc[nH]c3c2)cc1 | inconclusive: -48.9%
CCCOc1ccc(N2C(=O)CC(SC(=NCC)NCC)C2=O)cc1 (stereo not given) | inconclusive: -52.5%
CC(C)c1cccc(C(C)C)c1NS(=O)(=O)c1cccs1 | inconclusive: -40.9%
C=CCOC(=O)C1=C(C)N=C2SCCC(=O)N2C1/C=C/c1ccccc1OC (stereo not given) | inconclusive: -55.5%
CC1(C)N=C(N)N=C(N)N1c1ccc(CCCCc2ccccc2)cc1 | active: -101%
O=C(NC1CC(=O)N(c2ccccc2)C1)c1ccc(S(=O)(=O)N2CCCC2)cc1 (stereo not given) | inconclusive: -56.3%
CCc1ccc(NC(=O)CC2C(=O)N(c3ccc(Cl)cc3)C(=O)N2C2CCCC2)cc1 (stereo not given) | inconclusive: -50.5%
COc1ccc(NCc2cc(=O)[nH]c3ccccc23)cc1 | inactive: -25.9%
COc1ccc(-c2nc3c(c(=O)c4ccccc4n3C)c(=O)n2Cc2ccccc2)cc1 | inconclusive: -42.1%
O=C(/C=C/c1ccco1)OCC(=O)N1CCCCC1 | inactive: -25%
CS(=O)(=O)c1ccc(C(=O)OCC(=O)N2CCN(CCC3CCCCC3)CC2)cc1[N+](=O)[O-] | active: -103%
CCOc1ccc(/C=N/n2c(C3CCCCC3)n[nH]c2=S)cc1 | active: -81.2%
O=C(Cn1ncc2c3ccccc3n(Cc3cccc(Cl)c3)c2c1=O)N1CCCCCC1 | inactive: -10.2%
CCOc1ncccc1C(=O)Nc1cccc(C(=O)Nc2cccc(S(=O)(=O)CCO)c2)c1 | inconclusive: -45.1%
Cc1ccc(C(=O)O)cc1NC(=S)NC(=O)c1ccc(-c2ccc(Cl)cc2)o1 | inactive: 11.6%
CCc1nc2ccccc2n1Cc1ccccc1F | inconclusive: -58.4%
NS(=O)(=O)c1ccc(Nc2nc(-c3ccc(O)cc3)cs2)cc1 | inconclusive: -42.4%
CCOC(=O)C1(c2ccccc2)NC(c2ccccc2C)C2C(=O)N(c3ccc4c(c3)OCO4)C(=O)C21 (stereo not given) | inactive: 13%
COC(=O)[C@@H]1[C@@H](CO)[C@@H]2Cn3c(ccc(Br)c3=O)[C@H]1N2CCc1ccccc1 | inactive: 11.5%
